The results in this text go back to patent US12691093B2 (THE TRUSTEES OF INDIANA UNIVERSITY, priority 2020, dated 2026).

In the case of `C=C1CCCC2(C)C=C3OC(=O)C(C)=C3CC12` (stereo not drawn) [ATT-I, atractylenolide I], the “CD8+ T cell cytotoxicity upon treatment of CD8+ T cells only” value in the data set on MC38-OVA cells is reported as “did not have notable effect”. Moreover, the toxicity in vivo entry (at the tested doses) is “no notable toxicity”. Besides, the “systemic toxicity (body weights and pathological analysis of major organs)” value (versus control vehicle group) is “negligible systemic toxicity”.
